From PubChem BioAssay AID504834 (National Center for Advancing Translational Sciences (NCATS), 2011)
Among all 320,000 compounds or so, about 22,000 (6.9%) were called active. This list was built around the results that the source calls inconclusive (neither active nor inactive); the mix of calls is not that of the screen. Calls follow the shape of the dose curve; as a rule, active = well fitted inhibition curve with a large enough effect; inconclusive = small, poorly fitted or top-dose-only effect, or another doubt; inactive = no such curve, though single readings can be large or run the other way. Potencies beside an inconclusive call are fits to weak or partial responses and may not hold up.

assay: Primary qHTS for delayed death inhibitors of the malarial parasite plastid, 96 hour incubation; details: P. falciparum luciferase reporter growth; series mostly up to 28.7 µM
Summary of the method: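 Luminescence readout: decreased luciferase signal marks inhibited growth of reporter-expressing P. falciparum in infected red cells (2% hematocrit, 0.05% parasitemia final), exposed to compound two generations (96 h, 37 C, 5% CO2).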
Potency is read from the fitted curve at half-maximal effect.

Row | SMILES | Potency
1 | COc1ccccc1C1CC(c2ccc(NS(C)(=O)=O)cc2)=NN1C(=O)c1ccccc1 (centres undefined) | inconclusive: 2.94 µM [inhibitor, full curve, poor fit]
2 | Cc1ccc(C)n1-c1ccc(N2CCOCC2)nc1 | inconclusive: 9.28 µM [inhibitor, partial curve, poor fit]
3 | O=[N+]([O-])c1ccc(Nc2nc(N/N=C/c3cccc(F)c3)nc(N3CCCC3)n2)cc1 | inconclusive: 11.7 µM [inhibitor, single point]
4 | CCN1CCN(C2CCCCC2NS(=O)(=O)c2ccc(Cl)cc2)CC1 (centres undefined) | inconclusive: 18.5 µM [inhibitor, single point]
5 | CCC(Oc1nc2ccccc2nc1-c1ccccc1NC(C)=O)C(=O)c1ccccc1 (centres undefined) | inconclusive: 13.1 µM [inhibitor, single point]
6 | Cc1cc(=O)cc(C)n1-c1ccccc1N | inactive
7 | CCCC(=O)Nc1sc(C)c(C)c1C#N | inactive
8 | COc1cccc(/C=N/NC(=O)c2ccncc2)c1OC(=O)c1ccc(Br)cc1 | inconclusive: 18.5 µM [inhibitor, single point]
9 | COC(=O)c1ccc(OCC(=O)Nc2ccccc2C(=O)NC2CC2)cc1 | inconclusive: 18.5 µM [inhibitor, single point]
10 | COc1ccc(C(CNC(=O)COc2ccccc2OC)N2CCCCC2)cc1 (centres undefined) | inconclusive: 0.415 µM [inhibitor, full curve, poor fit]
11 | CCc1ccccc1NC(=O)CN(C)C(=O)CSc1nnc(Nc2cccc(C)c2)s1 | inconclusive: 7.38 µM [inhibitor, partial curve, poor fit]
12 | COc1ccc(-c2ccc(C)cc2)cc1[C@H]1[C@@H]2C=CCC[C@@]2(C)C(=O)N1Cc1ccccc1 | inconclusive: 2.33 µM [inhibitor, single point]
13 | CN(c1ccc(F)cc1)S(=O)(=O)c1ccc(Cl)c(C(=O)NC2(C)CCS(=O)(=O)C2)c1 (centres undefined) | inconclusive: 13.1 µM [inhibitor, single point]
14 | NC(=O)CC(NC(=O)Cc1ccc(Br)cc1)c1ccc(NC2CCCCCC2)c([N+](=O)[O-])c1 (centres undefined) | inconclusive: 11.7 µM [inhibitor, single point]
15 | O=C(Nc1ccc2ccccc2c1)c1cccc([N+](=O)[O-])c1 | inconclusive: 6.57 µM [inhibitor, partial curve]
16 | CCCC(=O)Nc1cc(C)cn(Cc2c(F)cccc2Cl)c1=O | inconclusive: 9.28 µM [inhibitor, single point]
17 | C=CCn1c(SCC(=O)NC(=O)c2cccn2C)nc2ccccc2c1=O | inactive
18 | CCn1c(CN2CCN(c3cccc(C)c3C)CC2)n[nH]c1=S | inconclusive: 18.5 µM [inhibitor, single point]
19 | O=C1/C(=C\c2ccco2)SC(=S)N1Cc1ccccc1 | inconclusive: 18.5 µM [inhibitor, single point]
20 | Cc1ccc2c(c1)COc1c3ccc(C(=O)NCC4CC4)cc3nn1-2 | inactive
21 | Cc1ccc(NN2C(=O)C=C(c3ccccc3)C2=O)cc1 | inactive
22 | Cc1ccccc1Cn1nc(C)c(NC(=O)c2noc3c2CCc2ccccc2-3)c1C | active: 1.17 µM
23 | O=P(O)(O)c1ccccc1OCc1ccccc1 | inconclusive: 18.5 µM [inhibitor, single point]

Individual results from above.
Under Potency, O=C(Nc1ccc2ccccc2c1)c1cccc([N+](=O)[O-])c1 reads inconclusive: 6.57 µM [inhibitor, partial curve]
Under Potency, COc1ccccc1C1CC(c2ccc(NS(C)(=O)=O)cc2)=NN1C(=O)c1ccccc1 (centres undefined) reads inconclusive: 2.94 µM [inhibitor, full curve, poor fit]

Further structures follow.

Row | SMILES | Potency
24 | CC(NC(=O)C1CCC(CNc2c(N3CCCCC3)c(=O)c2=O)CC1)c1ccccc1 (centres undefined) | inactive
25 | Cc1ncsc1CCOC(=O)c1cccnc1 | inactive
26 | O=C(Nc1ccccc1-c1ccccc1NC(=O)c1ccco1)c1ccco1 | inconclusive: 18.5 µM [inhibitor, single point]
27 | CCOc1ccccc1N1CC(C(=O)Nc2nccs2)CC1=O (centres undefined) | inconclusive: 20.8 µM [inhibitor, partial curve, poor fit]
28 | CCN(CC)C(=O)CSc1nc2c(sc(=S)n2-c2ccccc2)c(=O)[nH]1 | inconclusive: 1.04 µM [inhibitor, single point]
29 | O=S(=O)(Nc1ccc(Cl)cn1)c1ccc(Cl)cc1 | inconclusive: 0.329 µM [inhibitor, full curve, poor fit]
30 | O=C(O)CCC1(CCC(=O)O)c2ccccc2-c2ccccc21 | active: 6.57 µM
31 | O=C(CNCc1ccccc1)NC1C2CC3CC(C2)CC1C3 (centres undefined) | inconclusive: 18.5 µM [inhibitor, single point]
32 | CCOC(=O)c1ccc(NC(=O)C2=C(C)Nc3nc(CCCO)nn3C2c2cccc(C)c2)cc1 (centres undefined) | inconclusive: 18.5 µM [inhibitor, partial curve, poor fit]
33 | CCN(Cc1ccncc1)Cc1cn[nH]c1-c1ccc(OC)cc1F | inconclusive: 11.7 µM [inhibitor, single point]
34 | CCOC(=O)c1sc2nc(CSc3ccccc3)nc(NCCN(C)C)c2c1C | inconclusive: 5.22 µM [inhibitor, partial curve, poor fit]
35 | CCCCNC(=O)CCCCCn1c(=O)[nH]c2cc(OC)c(OC)cc2c1=O | inconclusive: 11.7 µM [inhibitor, single point]
36 | CC1(C)SC(=S)N(/N=C/c2ccccc2)C1N(O)C(=O)Nc1ccc([N+](=O)[O-])cc1 (centres undefined) | inconclusive: 13.1 µM [inhibitor, single point]
37 | O=C(N/N=C/c1ccc([N+](=O)[O-])o1)C1CC1 | active: 4.15 µM
38 | COc1cccc(OC)c1C(=O)N=c1sc2cc(S(C)(=O)=O)ccc2n1C | inconclusive: 13.1 µM [inhibitor, single point]
39 | CC1Cc2nc(SCC(=O)NCc3ccccc3)n(Cc3ccccc3)c(=O)c2S1 (centres undefined) | inconclusive: 4.65 µM [inhibitor, partial curve]
40 | CCOC(=O)c1c(N)nn(C(=O)c2ccccc2F)c1-c1ccc(OC)cc1 | inconclusive: 0.329 µM [inhibitor, partial curve, poor fit]
41 | CCCNC(=O)COC(=O)/C(C#N)=C/c1cc(C)n(CCC)c1C | inconclusive: 10.4 µM [inhibitor, single point]
42 | Cn1c(NC(=O)c2ccccc2)c(-c2ccccn2)c(=O)c2ccccc21 | inactive
43 | Cc1ccc(NC(=O)CN2CCC(Cc3ccccc3)CC2)cc1S(=O)(=O)N(C)C | inconclusive: 18.5 µM [inhibitor, single point]
44 | CCc1nc2ccccc2n1CC(=O)N1CCN(Cc2ccccc2)CC1 | inconclusive: 14.7 µM [inhibitor, single point]
45 | Cc1cc(F)ccc1S(=O)(=O)N(C(=O)c1ccncc1)c1ccc(OC(=O)c2ccncc2)cc1 | inconclusive: 18.5 µM [inhibitor, single point]
46 | CC(SCc1ccccc1)C(=O)Nc1ccccc1Br (centres undefined) | inactive

Row | SMILES | Potency
47 | CC(NC(=O)c1ccc2c(c1)OCO2)c1cccc(C(F)(F)F)c1 (centres undefined) | inconclusive: 9.28 µM [inhibitor, single point]
48 | C[C@@H]1O[C@@H](O[C@H]2[C@H](Oc3cc(O)c4c(c3)OC(c3ccc(O)cc3)CC4=O)O[C@H](CO)[C@@H](O)[C@@H]2O)[C@H](O)[C@H](O)[C@H]1O (some centres undefined) | inactive
49 | C/C(=C\c1ccccc1)CN1CCN(c2cccc(Cl)c2)CC1 | inconclusive: 0.147 µM [inhibitor, full curve, poor fit]
50 | C=CCc1ccc(OCC(O)CN2CCCCC2C)c(OC)c1 (centres undefined) | inactive
51 | Cc1cc(Cl)ccc1OCCCC(=O)N1CCN(C(=O)c2ccco2)CC1 | inconclusive: 18.5 µM [inhibitor, single point]
52 | CCc1nn(CC(=O)N2CC(C)CC(C)C2)c(=O)c2cccn12 (centres undefined) | inactive
53 | CCCc1nnc(NC(=O)CCC(=O)NC2CCCCC2)s1 | inactive
54 | COc1ccc(OC)c(NC(=O)c2ccc(Cl)cc2)c1 | inactive
55 | CC(C)(C)c1ccc(NNC(=O)C2CCC2)cc1 | inactive
56 | CC(OC(=O)c1ccc(O)cc1)C(=O)Nc1nc(-c2ccccc2)cs1 (centres undefined) | inconclusive: 4.65 µM [inhibitor, partial curve]
57 | COc1ccc(C(=O)Nc2nnc(-c3ccccc3)o2)cc1OC | inconclusive: 0.0033 µM [inhibitor, full curve, poor fit]
58 | COCCN1CCN(C(=O)c2ccc3nc(Cc4ccc(OC)c(OC)c4)oc3c2)CC1 | inconclusive: 18.5 µM [inhibitor, single point]
59 | CCC(C)Sc1ccc([C@@H]2[C@H]3C(=O)N(CC)C(=O)[C@H]3[C@]3(C(=O)OC)CCCN23)cc1OC (some centres undefined) | active: 10.4 µM
60 | c1ccc2c(c1)C(=Nn1cnnc1)c1ccccc1-2 | active: 11.7 µM
61 | COc1cnn(-c2ccc(C)cc2)c(=O)c1SCc1ccccc1 | inactive
62 | Cc1ccc2c(c1C)NC(=O)CC(c1ccccc1O)=N2 | inconclusive: 9.28 µM [inhibitor, single point]
63 | CCC(C)[C@H](NC(=O)N1CC(=O)Nc2ccccc21)C(=O)Nc1nccs1 (some centres undefined) | inconclusive: 18.5 µM [inhibitor, single point]
64 | CC(=O)NC(CC(=O)Nc1cc(Cl)ccc1-n1cncn1)c1ccccc1 (centres undefined) | inactive
65 | CCn1cc(CNC(=O)CC2C(=O)NCCN2CC(c2ccccc2)c2ccccc2)cn1 (centres undefined) | inconclusive: 18.5 µM [inhibitor, single point]
66 | Cc1ccc(CNC(=O)c2ccc3c(c2)NC(=O)C(N2CCOCC2)S3)cc1 (centres undefined) | inactive
67 | CCOCCCNCc1ccc(OCc2ccc(F)cc2)c(OC)c1 | inconclusive: 18.5 µM [inhibitor, single point]
68 | CN1CCN(S(=O)(=O)c2cccc(C(=O)N(Cc3nnc(-c4ccccc4Cl)o3)C3CC3)c2)CC1 | active: 14.7 µM
69 | Cc1cccc(N2CCN(C(=O)c3ccc4c(c3)OCCO4)CC2)c1C | inconclusive: 18.5 µM [inhibitor, single point]

From entry 48 up to 67, copied from above:
Row | SMILES | Potency
48 | C[C@@H]1O[C@@H](O[C@H]2[C@H](Oc3cc(O)c4c(c3)OC(c3ccc(O)cc3)CC4=O)O[C@H](CO)[C@@H](O)[C@@H]2O)[C@H](O)[C@H](O)[C@H]1O (some centres undefined) | inactive
49 | C/C(=C\c1ccccc1)CN1CCN(c2cccc(Cl)c2)CC1 | inconclusive: 0.147 µM [inhibitor, full curve, poor fit]
50 | C=CCc1ccc(OCC(O)CN2CCCCC2C)c(OC)c1 (centres undefined) | inactive
51 | Cc1cc(Cl)ccc1OCCCC(=O)N1CCN(C(=O)c2ccco2)CC1 | inconclusive: 18.5 µM [inhibitor, single point]
52 | CCc1nn(CC(=O)N2CC(C)CC(C)C2)c(=O)c2cccn12 (centres undefined) | inactive
53 | CCCc1nnc(NC(=O)CCC(=O)NC2CCCCC2)s1 | inactive
54 | COc1ccc(OC)c(NC(=O)c2ccc(Cl)cc2)c1 | inactive
55 | CC(C)(C)c1ccc(NNC(=O)C2CCC2)cc1 | inactive
56 | CC(OC(=O)c1ccc(O)cc1)C(=O)Nc1nc(-c2ccccc2)cs1 (centres undefined) | inconclusive: 4.65 µM [inhibitor, partial curve]
57 | COc1ccc(C(=O)Nc2nnc(-c3ccccc3)o2)cc1OC | inconclusive: 0.0033 µM [inhibitor, full curve, poor fit]
58 | COCCN1CCN(C(=O)c2ccc3nc(Cc4ccc(OC)c(OC)c4)oc3c2)CC1 | inconclusive: 18.5 µM [inhibitor, single point]
59 | CCC(C)Sc1ccc([C@@H]2[C@H]3C(=O)N(CC)C(=O)[C@H]3[C@]3(C(=O)OC)CCCN23)cc1OC (some centres undefined) | active: 10.4 µM
60 | c1ccc2c(c1)C(=Nn1cnnc1)c1ccccc1-2 | active: 11.7 µM
61 | COc1cnn(-c2ccc(C)cc2)c(=O)c1SCc1ccccc1 | inactive
62 | Cc1ccc2c(c1C)NC(=O)CC(c1ccccc1O)=N2 | inconclusive: 9.28 µM [inhibitor, single point]
63 | CCC(C)[C@H](NC(=O)N1CC(=O)Nc2ccccc21)C(=O)Nc1nccs1 (some centres undefined) | inconclusive: 18.5 µM [inhibitor, single point]
64 | CC(=O)NC(CC(=O)Nc1cc(Cl)ccc1-n1cncn1)c1ccccc1 (centres undefined) | inactive
65 | CCn1cc(CNC(=O)CC2C(=O)NCCN2CC(c2ccccc2)c2ccccc2)cn1 (centres undefined) | inconclusive: 18.5 µM [inhibitor, single point]
66 | Cc1ccc(CNC(=O)c2ccc3c(c2)NC(=O)C(N2CCOCC2)S3)cc1 (centres undefined) | inactive
67 | CCOCCCNCc1ccc(OCc2ccc(F)cc2)c(OC)c1 | inconclusive: 18.5 µM [inhibitor, single point]
